27 molecules from the odorant receptor screen of Mainland et al. (2015) can be followed below.

“And” between values parts separate entries of the source, which are not always exact repeats. Equal values may be shown once. Some of the results follow. Each value is one well over the wells without odorant, computed here; the data are noisy.

The assay relates to pseudo clone 1419. Briefly: odorant receptor activation (CRE luciferase / Renilla) (fold of no-odor wells); higher = more activation. As to conditions: 100 µM.
As to `CCCCCCCC=O` [octyl aldehyde], the odorant receptor activation turned out to be 0.897.

Molecule `CCCCCCCOC(C)=O` [heptyl acetate] registered an odorant receptor activation of 0.996.

Consider `CCCCCCCCCCC=O` [undecanal], for which the odorant receptor activation is 1.44.

`CCCC(=O)O` [butyric acid] yielded an odorant receptor activation of 0.279.

`CC=Cc1ccc(O)c(OC)c1` [isoeugenol] returned an odorant receptor activation of 1.33.

Molecule `CC(=O)OCC=C(C)CCC=C(C)C` [geranyl acetate] registered an odorant receptor activation of 0.946.

Consider `O=C1CCCCCCCCCCCCCCO1` [pentadecalactone], for which the odorant receptor activation amounted to 1.6.

Regarding `CCC1(O)C2(C)CCC(C2)C1(C)C` (configuration not stated) [2-ethylfenchol], the odorant receptor activation worked out at 0.746.

Regarding `COc1ccccc1O` [guaiacol], the odorant receptor activation amounted to 0.78.

On to `C=C(C)C1CC=CCC1` (configuration not stated) [r-limonene], for which the odorant receptor activation was 1.3 and 1.02.

Consider `COc1cc(C=O)ccc1O` [vanillin], for which the odorant receptor activation turned out to be 1.33.

On to `CC1=CCC(C(C)(C)O)CC1` (configuration not stated) [terpineol], for which the odorant receptor activation worked out at 1.18.

In the case of `CC12CCC(C1)C(C)(C)C2=O` (configuration not stated) [fenchone], the odorant receptor activation turned out to be 0.903.

On to `CC1CCC(C(C)C)C(O)C1` (single isomer, unassigned; (-)) [(-)-menthol], for which the odorant receptor activation worked out at 0.87.

`O=C1CCCCCCCCCCCC(=O)OCCO1` [ethylene brassylate] gave an odorant receptor activation of 1.56.

Turning to `CCCCCOC(C)=O` [n-amyl acetate], the odorant receptor activation amounted to 1.06.

On to `CCCCCC(=O)O` [caproic acid], for which the odorant receptor activation turned out to be 0.241.

In turn, `C=CCSCC=C` [diallyl sulfide] yielded an odorant receptor activation of 0.973.

In turn, `CCCCCC(C)=O` [2-heptanone] showed an odorant receptor activation of 1.17.

As for `CC1CCC(C(C)C)C(O)C1` (single isomer, unassigned; (+)) [(+)-menthol], the odorant receptor activation was found to be 0.9.

Consider `c1ccc(Oc2ccccc2)cc1` [diphenyl ether], for which the odorant receptor activation was 1.1.

For the molecule `CC12CCC(CC1)C(C)(C)O2` [cineole], the odorant receptor activation stood at 0.233.

Consider `CCCCCCC=O` [heptaldehyde], for which the odorant receptor activation is 1.14 and 0.686.

The molecule `CCCCCCCC=CC=O` [2-decenal] yielded an odorant receptor activation of 0.766.

On to `CCCCCCOC(=O)CCC` [hexyl butyrate], for which the odorant receptor activation worked out at 0.776.

Consider `CCCCCCCCC=O` [nonyl aldehyde], for which the odorant receptor activation is 1.22.

With `C=CC(C)(O)CCC=C(C)C` (configuration not stated) [linalool], the odorant receptor activation is 0.95.
